Data: patent US20230127875 (published 2023)

Assay: general procedure: recombinant production

Substance	crude HPLC purity (lipidation step) [%]	crude HPLC purity (late stage modification step) [%]
DiFmoc-Insulin (tBuO-Pal-Glu-(Lys^29NH)-OtBu, DesB30)	66.64	–
Insulin (tBuO-Pal-Glu-(Lys^29NH)-OtBu, DesB30)	–	74.37
